Assay results taken from doi:10.1101/2025.05.27.656348.

Target: T1, RELMβ bait: RELMβ fused to rat CD4d3+4, BirA recognition site and 6X-histidine tag (mouse) (UniProt Q99P86)
T1 sequence (chain, biotin at the BirA recognition site (enzymatic, BirA500 kit; told for SPR only)): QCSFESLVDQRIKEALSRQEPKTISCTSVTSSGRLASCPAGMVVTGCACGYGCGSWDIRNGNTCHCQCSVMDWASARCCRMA
Test: ELISA

For “HpApyMut2 (Heligmosomoides polygyrus bakeri) (enzyme)”, the binding was “no binding”.

Results are given in words; binding and its absence hold for the method and conditions named. Sequences can lack the tags named with a protein.
